The target in assay [1] is PTEN (phosphatase and tensin homolog) (human (endogenous in MCF-7)) (UniProt P60484). Nature of the assay: native gel or EMSA; native PAGE of protein extracted from MCF-7 cells, untreated or treated with 1 mM H2O2; nonreducing nondenaturing sample buffer, no SDS, separated on ice; immunoblot.
For assay [2] the target is unchanged. Nature of the assay: co-IP; MCF-7 cells lysed in RIPA buffer with 0.5 mM PMSF and protease inhibitors; cleared lysate with a specific antibody overnight at 4 °C, protein A-Sepharose beads 2 h; blot with anti-PTEN or anti-HSD17B8; PTEN knock-down line as control.

Protein sequences, listed by entry. Tags and fused reporters are not part of them.
UniProt P60484: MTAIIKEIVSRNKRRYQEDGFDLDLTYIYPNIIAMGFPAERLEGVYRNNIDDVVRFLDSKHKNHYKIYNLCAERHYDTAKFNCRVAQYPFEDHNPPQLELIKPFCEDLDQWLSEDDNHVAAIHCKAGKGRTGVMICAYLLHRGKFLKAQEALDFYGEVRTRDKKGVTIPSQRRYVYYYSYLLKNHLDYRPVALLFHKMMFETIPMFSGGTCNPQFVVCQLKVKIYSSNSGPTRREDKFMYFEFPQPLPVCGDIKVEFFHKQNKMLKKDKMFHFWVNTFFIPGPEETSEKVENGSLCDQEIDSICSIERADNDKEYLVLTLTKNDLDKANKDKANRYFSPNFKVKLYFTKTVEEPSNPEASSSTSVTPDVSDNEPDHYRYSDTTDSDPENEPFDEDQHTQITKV

These are yes or no findings as the source states them, for the method shown. For some assays here: In cells and extracts the contact can be indirect. Some binding calls cover weakened binding; strength is not graded here.

B1: estradiol 17-beta-dehydrogenase 8 (HSD17B8) (protein, UniProt Q92506 1-261)
chain: MASQLQNRLRSALALVTGAGSGIGRAVSVRLAGEGATVAACDLDRAAAQETVRLLGGPGSKEGPPRGNHAAFQADVSEARAARCLLEQVQACFSRPPSVVVSCAGITQDEFLLHMSEDDWDKVIAVNLKGTFLVTQAAAQALVSNGCRGSIINISSIVGKVGNVGQTNYAASKAGVIGLTQTAARELGRHGIRCNSVLPGFIATPMTQKVPQKVVDKITEMIPMGHLGDPEDVADVVAFLASEDSGYITGTSVEVTGGLFM
Consider B1, for which the binding result in assay [1] and in assay [2] was “binds” each time.

For the origin of these results see publication PMC11137105.
